PubChem BioAssay AID504793 | Drosophila RNAi Screening Center, 2011
Assay: 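Knock-downs allowing continued mitosis even though DNA is damaged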 (primary screen). Cell system: Drosophila S2R+ cells. Knock-down reagent: long dsRNA against Drosophila genes, about 0.25 µg dsRNA per well. Timing: 4 days of dsRNA, then 4 hours of drug before read-out. Challenge: doxorubicin 0.5 µM for 4 hours to cause double-strand breaks, in cells also given a low, harmless dose of dsRNA against nbs to sensitise the assay. Measured: 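Mitotic index as the number of phospho-histone H3-positive cells in each well following doxorubicin, given as raw counts without normalisation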. Direction: mitotic cells: higher = more cells in mitosis, weaker G2 arrest. Rule for the call: 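Genes are called active only when high mitotic counts were reproduced with independent dsRNAs and mitosis was checked for delay without damage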. Calls: active = confirmed in follow-up tests; inactive = not confirmed.
The screen tested about 23,000 reagents; below is an unselected part of those with a known target gene and a result. Of all reagents, 62 (0.27%) were called active. 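Calls come from follow-up tests whose scores are not deposited, so confirmed genes may have low counts here; counts are not normalised per plate.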 The raw values are shown without normalisation. Reagents against one gene are numbered here. Names joined by + are all predicted targets of the reagent.

mitotic cells, replicate 1 | mitotic cells, replicate 2 | call | target gene | reagent
7 | – | inactive | dcma (decima) | 1
5 | – | inactive | dcma (decima) | 2
4 | – | inactive | tsh (teashirt) | 1
8 | – | inactive | wcy (wacky) | 1
4 | – | inactive | wcy (wacky) | 2
7 | – | inactive | Ns1 (Nucleostemin 1) | 1
6 | – | inactive | CG31368 | 1
11 | – | inactive | CG31368 | 2
2 | – | inactive | CG12402 | 1
6 | – | inactive | CG12402 | 2
4 | – | inactive | CG14538 (retired record) | 1
11 | – | inactive | CG14538 (retired record) | 2
7 | – | inactive | TppII (Tripeptidyl-peptidase II) | 1
18 | – | inactive | EndoG (Endonuclease G) | 1
7 | – | inactive | EndoG (Endonuclease G) | 2
5 | – | inactive | EndoG (Endonuclease G) | 3
4 | – | inactive | CG3437 | 1
13 | – | inactive | CG3437 | 2
6 | – | inactive | rib (ribbon) | 1
4 | – | inactive | Ist1 | 1
14 | – | inactive | Ist1 | 2
7 | – | inactive | PICK1 (Protein interacting with C kinase 1) | 1
1 | – | inactive | CG8507 | 1
9 | – | inactive | Pi3K68D (Phosphatidylinositol 3-kinase 68D) | 1
6 | – | inactive | Pi3K68D (Phosphatidylinositol 3-kinase 68D) | 2
4 | – | inactive | CG8243 | 1
7 | – | inactive | CG8243 | 2
3 | – | inactive | RpL28 + snoRNA:Or-CD12 | 1
9 | – | inactive | CG32313 | 1
8 | – | inactive | CG13713 | 1
17 | – | inactive | Pgd (Phosphogluconate dehydrogenase) | 1
14 | – | inactive | Pgd (Phosphogluconate dehydrogenase) | 2
11 | – | inactive | Mco4 (Multicopper oxidase 4) | 1
8 | – | inactive | Mco4 (Multicopper oxidase 4) | 2
9 | – | inactive | CG14491 | 1
4 | – | inactive | CG14491 | 2
3 | – | inactive | Ugt304A1 (UDP-glycosyltransferase family 304 member A1) | 1
8 | – | inactive | Ugt304A1 (UDP-glycosyltransferase family 304 member A1) | 2
4 | – | inactive | CG13814 (retired record) | 1
7 | – | inactive | sage (salivary gland-expressed bHLH) | 1
14 | – | inactive | sage (salivary gland-expressed bHLH) | 2
15 | – | inactive | cyr (cypher) | 1
4 | – | inactive | cyr (cypher) | 2
9 | 3 | inactive | CG12688 (retired record) | 1
16 | 13 | inactive | CG12688 (retired record) | 2
5 | – | inactive | CG9849 | 1
8 | – | inactive | exex (extra-extra) | 1
4 | – | inactive | exex (extra-extra) | 2
4 | – | inactive | CG17068 | 1
5 | – | inactive | dany (distal antenna-young) | 1
6 | – | inactive | Uba4 (Ubiquitin-like activating enzyme 4) | 1
11 | – | inactive | Uba4 (Ubiquitin-like activating enzyme 4) | 2
10 | – | inactive | Pus10 (Pseudouridine synthase 10) | 1
14 | – | inactive | CG17770 + Acam | 1
8 | – | inactive | CG17770 + Acam | 2
4 | – | inactive | CG17770 + Acam | 3
6 | – | inactive | CG17770 + Acam | 4
5 | – | inactive | RpS26 (Ribosomal protein S26) | 1
7 | – | inactive | Sans (Scaffold protein containing ankyrin repeats and SAM domain) | 1
6 | – | inactive | Sans (Scaffold protein containing ankyrin repeats and SAM domain) | 2
10 | – | inactive | Bet3 (Blocked early in transport 3) | 1
14 | – | inactive | CheA7a (Chemosensory protein A 7a) | 1
1 | – | inactive | Dscam2 (Down syndrome cell adhesion molecule 2) | 1
9 | – | inactive | Dscam2 (Down syndrome cell adhesion molecule 2) | 2
10 | – | inactive | Dscam2 (Down syndrome cell adhesion molecule 2) | 3
9 | – | inactive | Dscam2 (Down syndrome cell adhesion molecule 2) | 4
7 | – | inactive | Dscam2 (Down syndrome cell adhesion molecule 2) | 5
8 | – | inactive | CG9747 | 1
6 | – | inactive | CG9747 | 2
14 | – | inactive | CG4660 | 1
5 | – | inactive | CG32055 | 1
5 | – | inactive | Buffy | 1
6 | – | inactive | COX5A (Cytochrome c oxidase subunit 5A) | 1
6 | – | inactive | mei-S332 (meiotic from via Salaria 332) | 1
3 | – | inactive | CG5139 | 1
8 | – | inactive | CG5139 | 2
8 | – | inactive | sba (six-banded) | 1
11 | 2 | inactive | sba (six-banded) | 2
8 | – | inactive | sba (six-banded) | 3
5 | – | inactive | pck (pickel) | 1
3 | – | inactive | CG5883 | 1
5 | – | inactive | Fbp1 (Fat body protein 1) | 1
9 | – | inactive | Fbp1 (Fat body protein 1) | 2
6 | – | inactive | CG14490 | 1
7 | – | inactive | CG14490 | 2
6 | – | inactive | CG32333 | 1
4 | – | inactive | CG32333 | 2
1 | – | inactive | Irbp18 (Inverted repeat binding protein 18 kDa) | 1
3 | – | inactive | CG17290 | 1
4 | – | inactive | CG17290 | 2
9 | – | inactive | Gyf (Gigyf) | 1
4 | – | inactive | Gyf (Gigyf) | 2
7 | – | inactive | CG31345 | 1
5 | – | inactive | CG31345 | 2
6 | – | inactive | Cht5 (Chitinase 5) | 1
6 | – | inactive | Cht5 (Chitinase 5) | 2
3 | – | inactive | CG6583 | 1
5 | – | inactive | CG6583 | 2
8 | – | inactive | MFS15 (Major Facilitator Superfamily Transporter 15) | 1
5 | – | inactive | MFS15 (Major Facilitator Superfamily Transporter 15) | 2
4 | – | inactive | gry (gryzun) | 1
10 | – | inactive | gry (gryzun) | 2
3 | – | inactive | CG34126 | 1
13 | – | inactive | CG34126 | 2
12 | – | inactive | CG10104 | 1
1 | – | inactive | Rh6 (Rhodopsin 6) | 1
4 | – | inactive | Rh6 (Rhodopsin 6) | 2
14 | – | inactive | CG11398 | 1
9 | – | inactive | CG32110 | 1
7 | – | inactive | ATP6AP2 (ATPase H+ transporting accessory protein 2) | 1

Part of the list above, showing only “mitotic cells, replicate 1”.
CG12402 #1 = 2
CG12402 #2 = 6
CG14538 (retired record) #1 = 4
CG14538 (retired record) #2 = 11
TppII (Tripeptidyl-peptidase II) = 7
EndoG (Endonuclease G) #1 = 18
EndoG (Endonuclease G) #2 = 7
EndoG (Endonuclease G) #3 = 5
CG3437 #1 = 4
CG3437 #2 = 13
rib (ribbon) = 6
Ist1 #1 = 4
Ist1 #2 = 14
PICK1 (Protein interacting with C kinase 1) = 7
